Binding data for two substances are collected here from publication PMC4604688.

Protein sequences, listed by entry. Tags and fused reporters are not part of them.
UniProt P19447: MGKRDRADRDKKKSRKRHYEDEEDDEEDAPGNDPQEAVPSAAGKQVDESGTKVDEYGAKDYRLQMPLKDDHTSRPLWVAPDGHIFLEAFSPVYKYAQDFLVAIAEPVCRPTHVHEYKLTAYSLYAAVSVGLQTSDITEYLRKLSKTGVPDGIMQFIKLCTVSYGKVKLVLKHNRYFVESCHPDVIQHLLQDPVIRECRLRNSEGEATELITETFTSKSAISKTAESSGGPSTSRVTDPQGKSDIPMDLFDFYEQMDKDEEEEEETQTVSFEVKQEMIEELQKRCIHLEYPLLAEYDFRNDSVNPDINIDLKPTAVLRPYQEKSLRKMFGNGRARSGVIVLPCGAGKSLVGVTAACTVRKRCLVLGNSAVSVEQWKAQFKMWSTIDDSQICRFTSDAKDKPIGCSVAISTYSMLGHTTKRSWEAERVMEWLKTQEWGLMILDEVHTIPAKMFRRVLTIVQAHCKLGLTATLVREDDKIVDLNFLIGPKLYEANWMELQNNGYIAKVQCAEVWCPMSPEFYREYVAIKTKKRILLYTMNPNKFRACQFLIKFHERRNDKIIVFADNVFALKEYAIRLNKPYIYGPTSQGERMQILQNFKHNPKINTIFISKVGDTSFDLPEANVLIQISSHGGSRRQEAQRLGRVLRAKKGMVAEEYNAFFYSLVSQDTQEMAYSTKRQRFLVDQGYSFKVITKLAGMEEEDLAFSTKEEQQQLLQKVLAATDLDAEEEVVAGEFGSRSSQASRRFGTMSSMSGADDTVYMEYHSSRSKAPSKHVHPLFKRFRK

Results are given in words; binding and its absence hold for the method and conditions named. In cells and extracts the contact can be indirect. Some entries that bind do so weakly or less than the wild type.

Assay [1] deals with p53 (endogenous, p53 wt/wt HCT116) (human (endogenous in HCT116)) (UniProt P04637). Put plainly: co-IP; p53 precipitated from cells with scrambled control siRNA, treated for 4 or 8 h with 300 μM 5-FU; blot for XPB.
Assay [2] has the same target. Put plainly: co-IP; p53 precipitated from cells with scrambled control siRNA, treated for 1 h with 300 μM 5-FU; blot for p38.

Take “XPB (DNA helicase of the nucleotide excision repair machinery, component of TFIIH) (from UniProt P19447 1-782) (enzyme)”: in assay [1], the binding result is “binds”.

In the case of “p38α kinase (from UniProt Q16539 1-360) (enzyme)”, the binding entry in assay [2] is “binds”.
